Laboratory results from article PMC7512061.
No constants are given. Whether binding was seen depends on the method and setting. In cells and extracts the contact can be indirect. Some binding calls cover weakened binding; strength is not graded here.

Chains of the proteins cited; added tags and fusions are not shown.
UniProt Q00987: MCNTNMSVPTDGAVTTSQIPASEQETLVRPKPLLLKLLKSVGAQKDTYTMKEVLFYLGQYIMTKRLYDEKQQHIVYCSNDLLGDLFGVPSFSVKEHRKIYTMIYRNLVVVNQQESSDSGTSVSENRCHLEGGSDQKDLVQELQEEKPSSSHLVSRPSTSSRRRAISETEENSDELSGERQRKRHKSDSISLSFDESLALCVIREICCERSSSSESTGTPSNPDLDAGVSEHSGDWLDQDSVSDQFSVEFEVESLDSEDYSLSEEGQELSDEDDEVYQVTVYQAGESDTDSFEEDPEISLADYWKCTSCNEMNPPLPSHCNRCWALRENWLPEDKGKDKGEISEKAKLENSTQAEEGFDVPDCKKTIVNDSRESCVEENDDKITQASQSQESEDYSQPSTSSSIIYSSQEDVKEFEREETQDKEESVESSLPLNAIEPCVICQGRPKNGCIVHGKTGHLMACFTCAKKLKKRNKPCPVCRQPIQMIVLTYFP

Biological target: MDM2 (human (endogenous in NB-39-nu)) (UniProt Q00987)
Test: co-IP; whole-cell lysates (5 mg, 1% NP-40 buffer) of NB-39-nu cells treated with 1 uM PF-477736 for 24 h; anti-MDM2 antibody (SMP14) or normal mouse IgG with protein-A/G magnetic beads, overnight at 4°C; blot with anti-AZI1 antibody

B1: centrosome-associated protein 131 (CEP131) (protein, UniProt Q9UPN4 1-1083)
chain: MKGTRAIGSVPERSPAGVDLSLTGLPPPVSRRPGSAATTKPIVRSVSVVTGSEQKRKVLEATGPGGSQAINNLRRSNSTTQVSQPRSGSPRPTEPTDFLMLFEGSPSGKKRPASLSTAPSEKGATWNVLDDQPRGFTLPSNARSSSALDSPAGPRRKECTVALAPNFTANNRSNKGAVGNCVTTMVHNRYTPSERAPPLKSSNQTAPSLNNIIKAATCEGSESSGFGKLPKNVSSATHSARNNTGGSTGLPRRKEVTEEEAERFIHQVNQATVTIQRWYRHQVQRRGAGAARLEHLLQAKREEQRQRSGEGTLLDLHQQKEAARRKAREEKARQARRAAIQELQQKRALRAQKASTAERGPPENPRETRVPGMRQPAQELSPTPGGTAHQALKANNTGGGLPAAGPGDRCLPTSDSSPEPQQPPEDRTQDVLAQDAAGDNLEMMAPSRGSAKSRGPLEELLHTLQLLEKEPDVLPRPRTHHRGRYAWASEVTTEDDASSLTADNLEKFGKLSAFPEPPEDGTLLSEAKLQSIMSFLDEMEKSGQDQLDSQQEGWVPEAGPGPLELGSEVSTSVMRLKLEVEEKKQAMLLLQRALAQQRDLTARRVKETEKALSRQLQRQREHYEATIQRHLAFIDQLIEDKKVLSEKCEAVVAELKQEDQRCTERVAQAQAQHELEIKKLKELMSATEKARREKWISEKTKKIKEVTVRGLEPEIQKLIARHKQEVRRLKSLHEAELLQSDERASQRCLRQAEELREQLEREKEALGQQERERARQRFQQHLEQEQWALQQQRQRLYSEVAEERERLGQQAARQRAELEELRQQLEESSSALTRALRAEFEKGREEQERRHQMELNTLKQQLELERQAWEAGRTRKEEAWLLNREQELREEIRKGRDKEIELVIHRLEADMALAKEESEKAAESRIKRLRDKYEAELSELEQSERKLQERCSELKGQLGEAEGENLRLQGLVRQKERALEDAQAVNEQLSSERSNLAQVIRQEFEDRLAASEEETRQAKAELATLQARQQLELEEVHRRVKTALARKEEAVSSLRTQHEAAVKRADHLEELLEQHRRPTPSTK
- binding: binds
